Reference: publication PMC9226508
No constants are given. Whether binding was seen depends on the method and setting. In cells and extracts the contact can be indirect. Some binding calls cover weakened binding; strength is not graded here. Values belong to the molecule of their own block, whether it stands above or below them.

Protein sequences, listed by entry. Tags and fused reporters are not part of them.
UniProt O75362: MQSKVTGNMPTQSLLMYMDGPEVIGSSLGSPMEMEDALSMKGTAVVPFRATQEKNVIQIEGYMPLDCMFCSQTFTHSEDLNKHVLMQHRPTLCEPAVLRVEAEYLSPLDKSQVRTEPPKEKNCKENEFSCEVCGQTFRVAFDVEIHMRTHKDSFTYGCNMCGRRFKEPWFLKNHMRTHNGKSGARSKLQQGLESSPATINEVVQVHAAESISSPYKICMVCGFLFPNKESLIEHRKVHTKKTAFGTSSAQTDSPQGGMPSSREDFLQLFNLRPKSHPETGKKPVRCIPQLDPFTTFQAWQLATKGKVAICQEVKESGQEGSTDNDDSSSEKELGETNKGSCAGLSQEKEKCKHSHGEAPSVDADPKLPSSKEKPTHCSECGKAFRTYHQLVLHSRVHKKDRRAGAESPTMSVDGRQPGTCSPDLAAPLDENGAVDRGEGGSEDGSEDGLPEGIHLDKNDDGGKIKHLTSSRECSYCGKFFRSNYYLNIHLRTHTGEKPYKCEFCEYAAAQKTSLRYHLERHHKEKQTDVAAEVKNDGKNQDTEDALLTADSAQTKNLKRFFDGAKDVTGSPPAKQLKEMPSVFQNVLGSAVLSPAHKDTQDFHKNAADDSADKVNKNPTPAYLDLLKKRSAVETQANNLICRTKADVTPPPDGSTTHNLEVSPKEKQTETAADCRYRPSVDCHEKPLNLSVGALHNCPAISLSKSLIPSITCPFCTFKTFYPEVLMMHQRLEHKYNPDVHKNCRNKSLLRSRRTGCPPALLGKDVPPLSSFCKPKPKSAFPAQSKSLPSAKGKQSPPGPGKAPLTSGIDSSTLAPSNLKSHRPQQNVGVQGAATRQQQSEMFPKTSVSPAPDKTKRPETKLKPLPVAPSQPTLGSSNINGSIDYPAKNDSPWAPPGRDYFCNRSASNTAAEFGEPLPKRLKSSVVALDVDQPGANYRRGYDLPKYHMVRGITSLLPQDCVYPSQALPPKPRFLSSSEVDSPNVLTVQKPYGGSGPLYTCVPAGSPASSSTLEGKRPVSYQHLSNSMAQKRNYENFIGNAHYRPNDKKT
UniProt Q13547: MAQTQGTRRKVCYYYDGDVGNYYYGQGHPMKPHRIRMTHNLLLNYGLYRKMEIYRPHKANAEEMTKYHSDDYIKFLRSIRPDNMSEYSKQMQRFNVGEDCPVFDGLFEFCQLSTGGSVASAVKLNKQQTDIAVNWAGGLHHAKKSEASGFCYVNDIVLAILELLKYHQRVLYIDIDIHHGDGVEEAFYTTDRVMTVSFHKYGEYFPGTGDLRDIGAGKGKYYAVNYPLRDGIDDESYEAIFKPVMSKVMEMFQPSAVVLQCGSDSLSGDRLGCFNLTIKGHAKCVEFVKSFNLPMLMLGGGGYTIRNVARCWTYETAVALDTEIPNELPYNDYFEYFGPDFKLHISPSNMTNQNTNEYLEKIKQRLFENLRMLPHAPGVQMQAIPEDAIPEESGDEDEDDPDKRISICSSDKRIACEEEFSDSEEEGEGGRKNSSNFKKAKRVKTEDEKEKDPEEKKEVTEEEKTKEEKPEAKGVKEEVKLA
UniProt P08047: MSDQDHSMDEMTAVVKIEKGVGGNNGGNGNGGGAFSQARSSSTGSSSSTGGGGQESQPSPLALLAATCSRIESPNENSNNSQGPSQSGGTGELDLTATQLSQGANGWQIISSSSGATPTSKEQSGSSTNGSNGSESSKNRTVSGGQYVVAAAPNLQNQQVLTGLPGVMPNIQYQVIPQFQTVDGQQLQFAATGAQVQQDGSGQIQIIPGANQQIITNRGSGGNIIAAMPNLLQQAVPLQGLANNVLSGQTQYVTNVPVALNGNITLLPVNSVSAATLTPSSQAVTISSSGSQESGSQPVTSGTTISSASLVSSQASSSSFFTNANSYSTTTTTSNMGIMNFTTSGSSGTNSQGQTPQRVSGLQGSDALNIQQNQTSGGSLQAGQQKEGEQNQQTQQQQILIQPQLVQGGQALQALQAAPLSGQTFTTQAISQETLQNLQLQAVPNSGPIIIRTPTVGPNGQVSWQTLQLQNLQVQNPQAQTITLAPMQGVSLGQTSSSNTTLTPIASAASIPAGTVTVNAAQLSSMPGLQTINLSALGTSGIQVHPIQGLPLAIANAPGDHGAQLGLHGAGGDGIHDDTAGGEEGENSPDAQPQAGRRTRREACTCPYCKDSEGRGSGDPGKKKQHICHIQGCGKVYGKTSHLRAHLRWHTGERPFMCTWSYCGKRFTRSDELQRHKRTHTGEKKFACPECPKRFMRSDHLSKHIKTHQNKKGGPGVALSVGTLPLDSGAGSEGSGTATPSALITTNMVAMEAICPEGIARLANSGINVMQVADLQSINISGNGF

Key:
[1] = biological target: T1, T-Box 2 (TBX2) (human (endogenous in MCF7, T47D, BT474)) (UniProt Q13207); experiment: co-IP; endogenous TBX2 precipitated with anti-TBX2 antibody from BT474 lysate (Figure 4C; also after SP-2509, Supplementary Figure S2) or from MCF7 lysate with mouse monoclonal D-3 or rabbit polyclonal ab33298 (Figure 6A); ELB: 300 mM NaCl, 0.1% IGEPAL CA-630; Dynabeads Protein G, 4°C; species-matched IgG as control IP; Western blot
T1 sequence: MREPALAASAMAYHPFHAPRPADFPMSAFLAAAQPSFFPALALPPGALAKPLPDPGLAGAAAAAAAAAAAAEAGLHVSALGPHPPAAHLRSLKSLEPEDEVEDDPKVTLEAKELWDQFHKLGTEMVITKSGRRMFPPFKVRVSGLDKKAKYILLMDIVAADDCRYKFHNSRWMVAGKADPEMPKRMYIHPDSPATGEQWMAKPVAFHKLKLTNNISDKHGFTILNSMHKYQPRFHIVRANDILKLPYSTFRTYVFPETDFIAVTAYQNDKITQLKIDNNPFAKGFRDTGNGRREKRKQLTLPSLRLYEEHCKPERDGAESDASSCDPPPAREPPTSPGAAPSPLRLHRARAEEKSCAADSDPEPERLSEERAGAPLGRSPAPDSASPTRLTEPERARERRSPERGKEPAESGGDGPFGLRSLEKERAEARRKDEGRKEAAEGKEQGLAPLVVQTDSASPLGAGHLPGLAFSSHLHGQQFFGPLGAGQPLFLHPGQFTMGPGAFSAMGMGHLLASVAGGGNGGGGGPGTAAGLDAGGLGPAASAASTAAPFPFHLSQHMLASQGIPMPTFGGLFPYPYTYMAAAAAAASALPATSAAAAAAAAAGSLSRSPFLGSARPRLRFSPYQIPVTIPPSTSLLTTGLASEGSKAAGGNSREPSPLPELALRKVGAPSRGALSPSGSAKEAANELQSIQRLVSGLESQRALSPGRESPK

[2] = biological target: T2, Grainyhead-Like 2 (GRHL2) (human (endogenous in MCF7)) (UniProt Q6ISB3); experiment: co-IP; endogenous GRHL2 precipitated with anti-GRHL2 antibody from MCF7 lysate (ELB: 300 mM NaCl, 0.1% IGEPAL CA-630), Dynabeads Protein G, 4°C; species-matched IgG as control IP; Western blot
T2 sequence: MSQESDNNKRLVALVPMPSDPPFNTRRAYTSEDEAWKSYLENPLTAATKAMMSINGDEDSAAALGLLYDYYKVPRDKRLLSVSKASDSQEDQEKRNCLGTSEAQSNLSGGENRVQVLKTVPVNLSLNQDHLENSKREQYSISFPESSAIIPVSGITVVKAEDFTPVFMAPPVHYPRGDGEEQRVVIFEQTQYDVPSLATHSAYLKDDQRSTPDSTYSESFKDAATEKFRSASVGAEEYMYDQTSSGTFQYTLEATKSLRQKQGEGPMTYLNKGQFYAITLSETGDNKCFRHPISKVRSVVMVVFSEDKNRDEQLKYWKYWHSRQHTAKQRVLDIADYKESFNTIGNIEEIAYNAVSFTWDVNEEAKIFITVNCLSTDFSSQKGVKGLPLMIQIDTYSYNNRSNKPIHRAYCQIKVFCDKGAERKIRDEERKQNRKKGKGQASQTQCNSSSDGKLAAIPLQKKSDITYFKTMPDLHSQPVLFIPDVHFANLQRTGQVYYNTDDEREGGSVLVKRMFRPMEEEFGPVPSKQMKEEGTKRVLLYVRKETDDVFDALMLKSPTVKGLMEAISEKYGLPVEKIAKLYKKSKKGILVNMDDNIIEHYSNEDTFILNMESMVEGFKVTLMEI

[3] = biological target: ZNF217 (human (endogenous in MCF7, BT474)) (UniProt O75362); experiment: co-IP; endogenous ZNF217 precipitated with anti-ZNF217 antibody from MCF7 and BT474 lysates (ELB: 300 mM NaCl, 0.1% IGEPAL CA-630), Dynabeads Protein G, 4°C; species-matched IgG as control IP; Western blot

- binding [1]: binds
Molecule: HDAC1 (from UniProt Q13547 1-482)

- binding [1]: binds
Molecule: Specificity Protein 1 (Sp1) (from UniProt P08047 1-785)

- binding [1]: binds
Molecule: ZNF217 (from UniProt O75362 1-1048)

- binding [2]: binds
- binding [3]: binds
B1: T-Box 2 (TBX2) (protein, UniProt Q13207 1-712)
chain: T1 sequence
